In paper PMC9426557:
Results are given in words; binding and its absence hold for the method and conditions named. In cells and extracts the contact can be indirect. Some entries that bind do so weakly or less than the wild type. Tags and fused reporters may be left off the sequences shown. Each block holds one binder with its values, some of them ahead of it.

Target: T1, HDA-2 (histone deacetylase 2, endogenous) (Neurospora crassa (endogenous in N. crassa mycelium)) (UniProt Q7SEL7)
T1 sequence: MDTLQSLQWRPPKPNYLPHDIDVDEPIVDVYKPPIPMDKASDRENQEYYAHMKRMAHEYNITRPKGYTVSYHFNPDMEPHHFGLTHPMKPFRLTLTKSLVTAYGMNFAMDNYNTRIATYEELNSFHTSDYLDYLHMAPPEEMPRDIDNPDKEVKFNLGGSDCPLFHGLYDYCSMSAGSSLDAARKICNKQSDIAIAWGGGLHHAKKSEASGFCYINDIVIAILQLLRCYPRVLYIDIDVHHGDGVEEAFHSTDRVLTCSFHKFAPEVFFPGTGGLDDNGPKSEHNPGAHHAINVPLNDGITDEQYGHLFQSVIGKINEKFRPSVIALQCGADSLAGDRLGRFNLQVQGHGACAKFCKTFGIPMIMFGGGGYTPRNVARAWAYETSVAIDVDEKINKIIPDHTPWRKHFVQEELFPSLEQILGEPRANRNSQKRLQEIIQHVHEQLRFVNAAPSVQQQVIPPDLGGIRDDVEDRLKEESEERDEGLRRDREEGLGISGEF
Assay: co-IP; N. crassa WT-strain cell extracts with ectopic Myc-tagged protein, precipitated with anti-HDA-2 or anti-SIF-2 antibody, protein G-Sepharose; eluates blotted with anti-Myc and anti-HDA-2 or anti-SIF-2

binding: binds
B1: Myc-CPR-1 (protein, UniProt Q7S7Z6 28-285)
chain: AKGPKITHKVYFDIEQGDKPLGRIVMGLYGKTVPKTAENFRALATGEKGFGYEGSTFHRVIKQFMIQGGDFTKGDGTGGKSIYGDKFPDENFKLKHSKKGLLSMANAGKDTNGSQFFITTVITSWLDGKHVVFGEVLEGYDVVEKIENTKTGPRDAPAEPIKIAKSGELEVPPEGLEGQSEWASPAYANEDEKPAAPVPVTDAKPPAHDSIPAATADDDDTGAPLFAKVLFFGVLVLGLVLYIRLRRAPKGTYGKGME

binding: binds
B2: Myc-SET-4 (protein, UniProt Q7RZ84 1-948)
chain: MTDKLPSLLTPIAPPSRTSFSVSAAVPVQDGIRAQENVEEEPYTIRCICKYPDDDGNTIYCELCDTWQHIECYYPNNSEDALRDPDFAHFCVECQPRPLDRERAKENQRRKLTTGVTEGMADKKSKRPISKSHKKKPKPSDLPLTGQHSKAEKQASIQDSHPPTKKSKSSHKSSHSVSSQAAKRSPQFGSTKSNHAHPPSPAATPPDLPADFEIHTYAPALLSGSSDRGVEIVHTNSFASLQVSNAISAWLRDHNKLQKETGWAYADIFQPLPPNIDQLKRPVDIELSRKTLGQGTVASWKCLKAPSAIAHNVPLVELNGQIGIQSSYCADPDSRWQELTSPLPYVFFHPMLPIYIDTRKEGSQARYIRRSCKPNAMLETYLSDGYELHFWLVTDRQVAAREEITLPWDFRFPNENKSRMLRVLGLSDEDTSAHAESSVDDGEYQALTSWLHNILSEYGGCACNLGSECAFARFHRNHLGKSQAPANPPKTKKRKSKTQSSSTIGTGPATDSRAASEGHLEDAPENDRRSVSGSARSKPPSRDLTPTARQGSFDTLGILTEPTDRDKRKVSMIEETFRRIELQQQPTKKRKARGSDAATTSKKGSKSSATTQTTNATNGPDERHCHFANGETAITSKATSPAASAKSGRVTKSKKTSSRKGSVAVVSHPVPAQPVRLPSRPKYADAGTQTNPDTEANPAPSPARPKRRLVSVTMRIMQHHRWLKEQQGKQRLLNQAVATVPMDVDSPKDNKAVVSVAGSVQDTTLKPSAPSKVTTSDVEMPDAPTVSASHLKAAQSTSVVTAPKSKVLDLRVPMPPVPPFPSSTSLALTSTTSLPAGTSAAQSSFSVTGLPSPLGPSSINGLTANPSPIKKKLSLSDYTKSRMNKAAAARPSVSVPSLKPNAALDEPKLTTSDDNGGAASGSPTTEKVTDTTGSTTAALALTTASSSV
